Reference: patent publication US12448475B2, “Drug delivery compositions and applications thereof” (The University of North Carolina at Chapel Hill, priority 2019, dated 2025)
At least one structure is not confirmed: it was looked up by name or label, or the drawing left a doubt. Some entries share one result that the patent states for a list of compounds.

Columns and labels:
[1] = DLS size distribution of drug-loaded PMeOx-PcBOx micelle formulations; type: physicochemical; conditions: drug-loaded PMeOx-PcBOx micelle formulation
[2] = Solubilization of poorly soluble drugs in P2 reference polymer micelles; conditions: polymer 10 mg/ml
Text: (§1) (P2). The molecules examined belonged to different classes including transforming growth factor β (TGF-β) receptor inhibitors (LY2109761, GW788388 and LY364947), protein synthesis inhibitors (bruceantin), toll-like receptor (TLR) 7 agonist (imiquimod), phosphatidylinositol 3-kinase (PI3K) inhibitors (wortmannin and pictilisib (GDC-0941)), microtubule inhibitor (paclitaxel), and topoisomerase inhibitors (Aclacinomycin A and SN-38). […] Drugs were screened at various ratios, beginning at 1:10 (drug:polymer), and increased the ratio until maximal solubility was obtained.

[3] = Release profile of encapsulated drugs from polymeric micelles; type: physicochemical; conditions: from PMeOx-PcBOx nanoparticle, 24 hour time point
Procedure: The release profile of encapsulated drugs (Paclitaxel and Bruceantin) in PMeOx-PcBOx was investigated. Both Paclitaxel and Bruceantin were continuously released from PMeOx-PcBOx nanoparticle, with over 80% of drugs being released at 24 hour time point (FIG. 5C). The release rates were similar for Bruceantin in both of the polymers. […] After 24 hours, most of the PTX was released in PcBOx whereas not even 50% was released from P2. This kind of release data is consistent with previously published data at this low (10:1) polymer:drug feeding ratio. Both paclitaxel and Bruceantin formulation in PMeOx-PcBOx were proven stable for 8 days at 4° C. as the drug loading and size distribution were monitored (FIGS. 5E and 5F).

[4] = Solubilization of poorly soluble drugs in PMeOx-PcBOx polymeric micelles; conditions: polymer 10 mg/ml
Text: as §1

[5] = DLS size distribution of API-loaded micelles, Example 8; type: physicochemical
Procedure: (§2) Drug-encapsulated polymeric nanoparticle formulations were prepared by the thin film hydration method. For resiquimod, imiquimod, and RXDX-105, stock solutions of PMeOx-PcBOx-PMeOx and drugs in chloroform:methanol (9:1) solution were mixed together at the pre-determined ratios (8:10 drug to polymer w/w ratio (resiquimod), 2:10 w/w ratio (imiquimod), 4:10 w/w ratio (RXDX-105)). The organic solvent was evaporated at 58° C. under a stream of inert gas to form a thin-film of drug-polymer homogenous mixture. Next, the thin films were hydrated with saline and then incubated for 5-10 min to form drug-encapsulated polymeric micelle solutions. All samples were prepared with 1 mg of polymer and hydrated with 100 uL of saline. The formed micelle solutions were centrifuged at 10,000 rpm for 3 minutes (Sorvall Legend Micro 21R Centrifuge, Thermo Scientific) to remove any precipitate of unloaded drug or polymer. The final concentration of drugs in PMeOx-PcBOx-PMeOx micelles was analyzed by HPLC (Agilent Technologies 1200 series) using a mixture of acetonitrile/water (70%/30% v/v for Resiquimod and imiquimod; 50%/50% v/v for RXDX-105) as the mobile phase. The samples were diluted with mobile phase to final concentration of ˜100 μg/mL of drugs and injected (10 μL) into the HPLC system. The flow rate was 1.0 mL/min, and column temperature was 40° C. Detection wavelength was 254 nm. Drug concentration was quantified against free drug calibration curves. Particle z-average effective diameter and polydispersity index (PDI) were measured by dynamic light scattering (DLS) (Nano-ZS, Malvern Instruments, UK).

[6] = Loading capacity of API-loaded micelles (thin film hydration, HPLC), Example 8; type: physicochemical; conditions: polymer 10 mg/ml
Procedure: as §2, with “The samples were diluted with mobile phase to final concentration of ˜100 μg/mL of drugs and injected (10 μL) into the HPLC system. The flow rate was 1.0 mL/min, and column temperature was 40° C. Detection wavelength was 254 nm.” left out, “UK). […]” for “UK).”

[7] = PcBOx diblock (PMeOx-PcBOx) micelles
[8] = PcBOx triblock (PMeOx-PcBOx-PMeOx) micelles

COC(=O)[C@@]12OC[C@]34[C@H]([C@@H](O)[C@@H]1O)[C@@]1(C)CC(=O)C(O)=C(C)[C@@H]1C[C@H]3OC(=O)[C@H](OC(=O)/C=C(\C)C(C)C)[C@@H]24 [Bruceantin, bruceantin]
Dv10 [1]: 17.2 nm | Dv50 [1]: 25.2 nm | Dv90 [1]: 42.9 nm | PDI [1]: 0.48 | size in DLS measurement [1]: 60 nm | LC (maximum loading capacity) [2]: 50.0% | LE (loading efficiency) [2]: 99% | drug released [3]: over 80% | LC (maximum loading capacity) [4]: 11.5% | LE (loading efficiency) [4]: 65%

CCOCc1nc2c(N)nc3ccccc3c2n1CC(C)(C)O [Resiquimod, resiquimod]
Deff [5, 7]: 165 nm | PDI [5, 7]: 0.175 | Deff [5, 8]: 184 nm | PDI [5, 8]: 0.214 | LC (%) [6, 7]: 38.1% | LC (%) [6, 8]: 40.7%

CC(=O)O[C@H]1C(=O)[C@@]2(C)[C@H]([C@H](OC(=O)c3ccccc3)[C@]3(O)C[C@H](OC(=O)[C@H](O)[C@@H](NC(=O)c4ccccc4)c4ccccc4)C(C)=C1C3(C)C)[C@]1(OC(C)=O)CO[C@@H]1C[C@@H]2O [paclitaxel]
drug released [3]: over 80%

COC[C@H]1OC(=O)c2coc3c2[C@@]1(C)C1=C(C3=O)[C@@H]2CCC(=O)[C@@]2(C)C[C@H]1OC(C)=O [wortmannin]
LC (maximum loading capacity) [4]: 3.8%
